Source: the supplement of paper PMC10849652
Some of the results follow.

Protein sequences, listed by entry. Tags and fused reporters are not part of them. Lines headed by an entry give the natural chain unless they say otherwise; changes in a name come on top.
UniProt O95433, whole entry, looked up: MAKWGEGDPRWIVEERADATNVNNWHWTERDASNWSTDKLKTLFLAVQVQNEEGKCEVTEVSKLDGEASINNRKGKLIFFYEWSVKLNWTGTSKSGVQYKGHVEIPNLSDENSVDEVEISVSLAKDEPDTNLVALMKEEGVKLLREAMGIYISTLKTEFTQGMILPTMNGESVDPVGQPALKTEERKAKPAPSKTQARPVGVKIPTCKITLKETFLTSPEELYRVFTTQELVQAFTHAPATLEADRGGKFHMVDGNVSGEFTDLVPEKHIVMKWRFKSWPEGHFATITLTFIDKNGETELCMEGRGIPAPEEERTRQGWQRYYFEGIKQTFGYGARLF
UniProt O95573: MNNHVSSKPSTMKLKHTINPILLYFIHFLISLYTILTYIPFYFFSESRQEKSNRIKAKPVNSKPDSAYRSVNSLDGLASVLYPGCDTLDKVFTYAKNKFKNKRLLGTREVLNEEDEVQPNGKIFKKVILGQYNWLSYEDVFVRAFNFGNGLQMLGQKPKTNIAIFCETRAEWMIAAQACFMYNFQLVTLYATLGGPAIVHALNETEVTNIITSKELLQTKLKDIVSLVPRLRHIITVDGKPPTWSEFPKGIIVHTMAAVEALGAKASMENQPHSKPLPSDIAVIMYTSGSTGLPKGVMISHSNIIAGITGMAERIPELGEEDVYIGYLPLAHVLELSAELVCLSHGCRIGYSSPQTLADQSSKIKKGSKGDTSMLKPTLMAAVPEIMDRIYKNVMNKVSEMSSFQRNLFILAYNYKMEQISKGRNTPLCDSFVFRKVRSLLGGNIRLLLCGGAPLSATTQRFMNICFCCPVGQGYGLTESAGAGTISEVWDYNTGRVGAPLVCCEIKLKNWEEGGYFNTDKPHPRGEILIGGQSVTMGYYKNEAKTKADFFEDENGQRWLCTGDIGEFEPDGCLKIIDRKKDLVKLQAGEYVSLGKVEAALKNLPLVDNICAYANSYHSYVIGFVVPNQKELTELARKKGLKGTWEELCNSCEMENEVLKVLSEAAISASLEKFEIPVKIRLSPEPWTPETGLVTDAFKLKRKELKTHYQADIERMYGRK
UniProt Q9Y3D8, whole entry, looked up: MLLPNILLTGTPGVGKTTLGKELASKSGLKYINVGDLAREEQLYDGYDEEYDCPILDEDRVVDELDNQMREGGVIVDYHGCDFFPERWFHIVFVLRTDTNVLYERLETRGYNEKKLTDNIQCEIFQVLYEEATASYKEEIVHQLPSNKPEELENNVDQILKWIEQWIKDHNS
UniProt Q04828: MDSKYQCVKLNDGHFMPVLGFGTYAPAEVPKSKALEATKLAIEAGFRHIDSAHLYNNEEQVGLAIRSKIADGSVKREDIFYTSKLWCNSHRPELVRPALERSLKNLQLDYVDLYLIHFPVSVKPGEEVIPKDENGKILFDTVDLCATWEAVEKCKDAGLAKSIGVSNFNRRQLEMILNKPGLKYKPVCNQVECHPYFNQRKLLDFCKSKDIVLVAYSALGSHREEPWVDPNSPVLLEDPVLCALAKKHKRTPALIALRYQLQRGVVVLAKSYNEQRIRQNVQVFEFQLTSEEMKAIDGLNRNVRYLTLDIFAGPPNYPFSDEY
UniProt Q3LIE5: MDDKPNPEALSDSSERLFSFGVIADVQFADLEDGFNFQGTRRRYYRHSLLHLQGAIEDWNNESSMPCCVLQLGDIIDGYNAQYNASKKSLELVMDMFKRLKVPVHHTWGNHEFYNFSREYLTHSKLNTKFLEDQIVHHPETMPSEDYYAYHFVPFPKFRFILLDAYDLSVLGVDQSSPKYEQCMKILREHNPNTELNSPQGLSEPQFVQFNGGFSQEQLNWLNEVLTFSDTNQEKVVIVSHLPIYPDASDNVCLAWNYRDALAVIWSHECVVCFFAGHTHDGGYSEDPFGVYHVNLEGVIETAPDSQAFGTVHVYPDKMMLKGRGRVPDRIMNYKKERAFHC
UniProt Q8WYP5: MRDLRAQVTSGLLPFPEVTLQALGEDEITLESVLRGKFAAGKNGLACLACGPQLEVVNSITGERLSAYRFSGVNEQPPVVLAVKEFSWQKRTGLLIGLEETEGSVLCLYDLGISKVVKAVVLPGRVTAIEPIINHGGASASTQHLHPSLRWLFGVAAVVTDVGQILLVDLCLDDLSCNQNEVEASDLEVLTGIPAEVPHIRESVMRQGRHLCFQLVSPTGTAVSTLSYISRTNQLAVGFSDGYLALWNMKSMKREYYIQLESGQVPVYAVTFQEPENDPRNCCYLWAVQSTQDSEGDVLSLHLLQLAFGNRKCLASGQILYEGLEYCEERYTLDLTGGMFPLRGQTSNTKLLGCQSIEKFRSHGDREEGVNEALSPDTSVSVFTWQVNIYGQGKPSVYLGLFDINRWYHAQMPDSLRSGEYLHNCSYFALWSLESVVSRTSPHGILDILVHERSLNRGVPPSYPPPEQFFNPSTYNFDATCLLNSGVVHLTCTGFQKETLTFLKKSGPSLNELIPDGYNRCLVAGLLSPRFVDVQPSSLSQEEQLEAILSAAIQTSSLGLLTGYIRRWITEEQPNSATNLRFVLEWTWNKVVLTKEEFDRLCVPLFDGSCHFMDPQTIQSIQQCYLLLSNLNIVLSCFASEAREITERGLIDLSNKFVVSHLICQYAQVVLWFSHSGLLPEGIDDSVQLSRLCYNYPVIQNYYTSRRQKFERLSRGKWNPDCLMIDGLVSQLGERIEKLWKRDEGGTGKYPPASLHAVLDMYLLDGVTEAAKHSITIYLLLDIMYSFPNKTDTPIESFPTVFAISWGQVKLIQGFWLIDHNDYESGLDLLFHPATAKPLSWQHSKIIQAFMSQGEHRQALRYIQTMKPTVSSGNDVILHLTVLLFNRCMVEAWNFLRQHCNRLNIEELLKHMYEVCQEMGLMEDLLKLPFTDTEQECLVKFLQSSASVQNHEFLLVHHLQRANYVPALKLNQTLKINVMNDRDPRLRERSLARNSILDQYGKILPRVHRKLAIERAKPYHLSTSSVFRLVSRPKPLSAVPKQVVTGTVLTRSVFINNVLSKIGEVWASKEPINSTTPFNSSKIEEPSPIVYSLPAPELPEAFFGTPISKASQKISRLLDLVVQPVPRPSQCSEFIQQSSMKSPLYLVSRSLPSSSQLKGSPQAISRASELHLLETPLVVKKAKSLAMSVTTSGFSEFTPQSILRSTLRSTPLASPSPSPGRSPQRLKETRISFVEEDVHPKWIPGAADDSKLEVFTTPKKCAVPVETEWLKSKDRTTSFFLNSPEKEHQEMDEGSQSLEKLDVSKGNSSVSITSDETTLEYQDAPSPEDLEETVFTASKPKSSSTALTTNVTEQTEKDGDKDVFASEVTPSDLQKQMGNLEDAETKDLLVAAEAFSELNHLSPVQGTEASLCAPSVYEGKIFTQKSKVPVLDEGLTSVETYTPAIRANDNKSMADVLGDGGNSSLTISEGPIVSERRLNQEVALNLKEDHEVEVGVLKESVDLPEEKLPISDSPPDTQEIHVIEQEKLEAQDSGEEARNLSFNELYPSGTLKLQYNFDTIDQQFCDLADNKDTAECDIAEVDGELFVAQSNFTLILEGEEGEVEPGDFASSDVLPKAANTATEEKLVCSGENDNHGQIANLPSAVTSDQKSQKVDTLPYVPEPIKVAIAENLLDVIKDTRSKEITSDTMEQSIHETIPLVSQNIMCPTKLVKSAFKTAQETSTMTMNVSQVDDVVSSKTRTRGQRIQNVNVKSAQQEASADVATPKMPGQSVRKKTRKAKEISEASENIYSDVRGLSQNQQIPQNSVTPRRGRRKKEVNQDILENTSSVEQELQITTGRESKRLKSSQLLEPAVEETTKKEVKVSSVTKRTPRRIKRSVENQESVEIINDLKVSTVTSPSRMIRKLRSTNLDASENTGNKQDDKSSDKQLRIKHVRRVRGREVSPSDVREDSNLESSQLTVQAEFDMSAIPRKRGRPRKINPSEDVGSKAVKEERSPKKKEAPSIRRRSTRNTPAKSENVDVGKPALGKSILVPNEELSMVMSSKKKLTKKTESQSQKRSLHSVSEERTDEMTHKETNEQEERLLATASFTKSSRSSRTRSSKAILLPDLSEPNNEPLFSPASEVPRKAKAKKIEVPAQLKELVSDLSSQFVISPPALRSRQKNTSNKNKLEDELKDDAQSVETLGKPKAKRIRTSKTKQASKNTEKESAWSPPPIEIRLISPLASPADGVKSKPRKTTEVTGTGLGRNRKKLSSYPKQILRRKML
UniProt Q9H9F9, whole entry, looked up: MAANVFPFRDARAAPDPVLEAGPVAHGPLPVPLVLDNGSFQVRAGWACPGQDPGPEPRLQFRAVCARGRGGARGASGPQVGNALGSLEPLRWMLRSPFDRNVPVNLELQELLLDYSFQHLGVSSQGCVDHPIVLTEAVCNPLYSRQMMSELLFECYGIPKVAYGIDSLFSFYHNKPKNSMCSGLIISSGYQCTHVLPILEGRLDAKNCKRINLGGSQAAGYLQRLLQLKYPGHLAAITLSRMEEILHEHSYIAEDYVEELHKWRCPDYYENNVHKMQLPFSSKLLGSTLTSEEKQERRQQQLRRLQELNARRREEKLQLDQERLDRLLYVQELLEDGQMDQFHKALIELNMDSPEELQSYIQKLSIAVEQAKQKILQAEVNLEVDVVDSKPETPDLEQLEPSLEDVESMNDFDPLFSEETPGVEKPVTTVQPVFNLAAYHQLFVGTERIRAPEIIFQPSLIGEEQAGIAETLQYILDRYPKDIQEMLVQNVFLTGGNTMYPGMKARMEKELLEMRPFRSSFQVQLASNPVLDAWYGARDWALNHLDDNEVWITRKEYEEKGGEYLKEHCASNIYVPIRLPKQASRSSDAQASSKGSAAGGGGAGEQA
UniProt Q63HM1: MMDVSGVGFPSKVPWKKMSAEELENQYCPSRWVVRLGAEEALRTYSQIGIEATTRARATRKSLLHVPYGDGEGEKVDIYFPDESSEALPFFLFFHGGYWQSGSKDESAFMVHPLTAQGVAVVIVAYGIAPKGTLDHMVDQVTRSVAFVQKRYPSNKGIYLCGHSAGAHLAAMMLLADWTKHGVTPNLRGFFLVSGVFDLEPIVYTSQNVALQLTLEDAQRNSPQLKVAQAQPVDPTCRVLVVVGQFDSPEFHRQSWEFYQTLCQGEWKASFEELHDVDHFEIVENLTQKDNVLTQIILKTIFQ
UniProt P55008: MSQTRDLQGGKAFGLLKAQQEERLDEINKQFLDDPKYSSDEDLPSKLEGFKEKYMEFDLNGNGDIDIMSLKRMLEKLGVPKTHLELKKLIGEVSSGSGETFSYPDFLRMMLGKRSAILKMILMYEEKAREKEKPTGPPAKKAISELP
UniProt Q9NRZ5: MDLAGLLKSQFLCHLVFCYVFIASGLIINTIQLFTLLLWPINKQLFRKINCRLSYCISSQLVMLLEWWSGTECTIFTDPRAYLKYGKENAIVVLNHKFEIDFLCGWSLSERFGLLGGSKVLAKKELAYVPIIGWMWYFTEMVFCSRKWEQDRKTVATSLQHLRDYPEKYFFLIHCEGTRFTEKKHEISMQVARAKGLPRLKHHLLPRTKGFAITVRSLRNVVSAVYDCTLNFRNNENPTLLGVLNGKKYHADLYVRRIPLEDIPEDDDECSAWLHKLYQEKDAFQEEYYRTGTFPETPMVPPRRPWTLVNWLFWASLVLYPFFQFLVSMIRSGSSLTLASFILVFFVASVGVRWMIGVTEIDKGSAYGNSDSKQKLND
UniProt Q96A54: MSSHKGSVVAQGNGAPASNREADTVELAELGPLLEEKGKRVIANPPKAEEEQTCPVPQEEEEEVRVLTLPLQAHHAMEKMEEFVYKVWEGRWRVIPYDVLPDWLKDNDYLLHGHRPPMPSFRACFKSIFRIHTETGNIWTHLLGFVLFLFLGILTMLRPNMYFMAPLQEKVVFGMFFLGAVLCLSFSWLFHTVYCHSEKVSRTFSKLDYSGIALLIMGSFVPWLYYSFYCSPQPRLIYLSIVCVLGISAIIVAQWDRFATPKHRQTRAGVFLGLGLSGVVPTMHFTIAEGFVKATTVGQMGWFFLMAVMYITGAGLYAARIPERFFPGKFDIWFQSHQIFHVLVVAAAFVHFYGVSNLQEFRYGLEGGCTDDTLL
UniProt P14621: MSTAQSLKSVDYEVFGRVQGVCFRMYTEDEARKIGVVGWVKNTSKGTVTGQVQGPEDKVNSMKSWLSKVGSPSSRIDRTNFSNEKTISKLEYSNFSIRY
UniProt O15120: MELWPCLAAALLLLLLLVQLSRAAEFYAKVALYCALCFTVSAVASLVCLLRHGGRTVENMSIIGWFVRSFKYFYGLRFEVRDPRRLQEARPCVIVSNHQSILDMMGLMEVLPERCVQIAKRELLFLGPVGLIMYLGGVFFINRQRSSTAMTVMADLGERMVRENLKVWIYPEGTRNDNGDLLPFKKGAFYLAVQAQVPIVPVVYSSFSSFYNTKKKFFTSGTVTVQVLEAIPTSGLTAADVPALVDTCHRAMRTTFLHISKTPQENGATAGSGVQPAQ
UniProt Q9BQI0: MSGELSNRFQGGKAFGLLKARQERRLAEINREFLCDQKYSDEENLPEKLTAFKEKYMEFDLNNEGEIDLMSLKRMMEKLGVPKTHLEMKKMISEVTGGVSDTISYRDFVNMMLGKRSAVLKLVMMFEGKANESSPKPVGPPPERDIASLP

Tests used:
Assay in all cases: log2 fold change, soluble protein after heating vs DMSO (PISA); higher = thermal stabilisation; K562 lysate, 10 uM; active = over 0.2 and 3.5 SD of the protein, either way, in both replicates (recomputed)
alvocidib = compound: CN1CC[C@H](c2c(O)cc(O)c3c(=O)cc(-c4ccccc4Cl)oc23)[C@H](O)C1 [alvocidib]
Procedure, shortened: (§1)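 Log-two fold change in thermal stability relative to solvent controls is reported from duplicates. For each sample, crude K562 extract from dounce-homogenised pellets in PBS pH 7.4 with 1 mM MgCl2, at 1 mg/mL protein, was treated with 10 μM compound for 30 min. Aliquots heated for 3 min across 48°C-58°C were pooled, brought to 0.5% NP-40 at 4°C and cleared at 21,000xg for 90 min. The supernatant was quantified by TMTpro 16plex LC-MS/MS with channel sums equalised.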

Tubastatin A = compound: CN1CCc2c(c3ccccc3n2Cc2ccc(C(=O)NO)cc2)C1 [Tubastatin A]
Procedure, shortened: as §1

[1] = compound: CNC(=O)C1=CC=CC=C1NC2=NC(=NC=C2Cl)NC3=C(C=C(C=C3)N4CCOCC4)OC
Procedure, shortened: as §1

defactinib = compound: CNC(=O)c1ccc(Nc2ncc(C(F)(F)F)c(NCc3nccnc3N(C)S(C)(=O)=O)n2)cc1 [defactinib]
Procedure, shortened: as §1

[2] = compound: CNc1nc(-c2ccc3c(N)n[nH]c3c2)cc(N2C[C@@H](C(=O)NC3CCCCC3)CC[C@H]2C)n1
Procedure, shortened: as §1

encorafenib = compound: COC(=O)N[C@@H](C)CNc1nccc(-c2cn(C(C)C)nc2-c2cc(Cl)cc(NS(C)(=O)=O)c2F)n1 [encorafenib]
Procedure, shortened: as §1

[3] = compound: COC(=O)[C@H](CCSC)NC(=O)C1=C(C=C(C=C1)NC[C@H](CS)N)C2=CC=CC=C2
Procedure, shortened: as §1

alisertib = compound: COc1cc(Nc2ncc3c(n2)-c2ccc(Cl)cc2C(c2c(F)cccc2OC)=NC3)ccc1C(=O)O [alisertib]
Procedure, shortened: as §1

[4] = compound: COc1cc2nc(-c3cc(F)ccc3O)nc(N[C@@H]3CNC[C@H]3C(C)(C)O)c2cc1OC
Procedure, shortened: as §1

gefitinib = compound: COc1cc2ncnc(Nc3ccc(F)c(Cl)c3)c2cc1OCCCN1CCOCC1 [gefitinib]
Procedure, shortened: as §1

Measured: log2 fold change

AIMP2 (UniProt Q13155)
inactive: alvocidib 0.037 | Tubastatin A -0.11 | [1] 0.006 | defactinib -0.01 | [2] -0.007 | encorafenib -0.02 | [3] 0.093 | alisertib 0.011 | [4] -0.028 | gefitinib -0.088

AFTPH isoform 9 (UniProt Q6ULP2)
inactive: alvocidib 0.014 | Tubastatin A -0.011 | [1] -0.001 | defactinib -0.015 | [2] -0.014 | encorafenib 0.072 | [3] -0.026 | alisertib -0.029 | [4] -0.024 | gefitinib 0.011

ACTN4 (UniProt O43707)
inactive: alvocidib -0.008 | Tubastatin A 0.047 | [1] 0.008 | defactinib -0.013 | [2] 0.038 | encorafenib -0.005 | [3] -0.035 | alisertib -0.014 | [4] 0.01 | gefitinib -0.006

AHSA1 (UniProt O95433)
inactive: alvocidib 0.004 | Tubastatin A 0.036 | [1] 0.005 | defactinib -0.026 | [2] 0.009 | encorafenib -0.021 | [3] -0.008 | alisertib -0.003 | [4] 0.038 | gefitinib 0.004

ACSL3 (UniProt O95573)
inactive: alvocidib -0.01 | Tubastatin A -0.013 | [1] 0.001 | defactinib -0.001 | [2] 0.021 | encorafenib 0.023 | [3] -0.054 | alisertib 0.022 | [4] 0.038 | gefitinib -0.014

ADD2 isoform 9 (UniProt P35612)
inactive: alvocidib -0.005 | Tubastatin A 0.308 | [1] 0.099 | defactinib 0.098 | [2] 0.172 | encorafenib 0.175 | [3] 0.047 | alisertib -0.247 | [4] -0.226 | gefitinib -0.04

3 records picked at random from those above:
AFTPH isoform 9 (UniProt Q6ULP2)
inactive: alvocidib 0.014 | Tubastatin A -0.011 | [1] -0.001 | defactinib -0.015 | [2] -0.014 | encorafenib 0.072 | [3] -0.026 | alisertib -0.029 | [4] -0.024 | gefitinib 0.011

ACTN4 (UniProt O43707)
inactive: alvocidib -0.008 | Tubastatin A 0.047 | [1] 0.008 | defactinib -0.013 | [2] 0.038 | encorafenib -0.005 | [3] -0.035 | alisertib -0.014 | [4] 0.01 | gefitinib -0.006

AIMP2 (UniProt Q13155)
inactive: alvocidib 0.037 | Tubastatin A -0.11 | [1] 0.006 | defactinib -0.01 | [2] -0.007 | encorafenib -0.02 | [3] 0.093 | alisertib 0.011 | [4] -0.028 | gefitinib -0.088

Next entries.

ACTR1A (UniProt P61163)
inactive: alvocidib -0.034 | Tubastatin A -0.006 | [1] -0.003 | defactinib -0.014 | [2] 0.008 | encorafenib -0.027 | [3] 0.04 | alisertib -0.008 | [4] -0.01 | gefitinib 0

AGFG1 isoform 4 (UniProt P52594)
inactive: alvocidib -0.017 | Tubastatin A 0.03 | [1] -0.024 | defactinib 0.035 | [2] 0.032 | encorafenib 0.041 | [3] -0.022 | alisertib -0.017 | [4] 0.004 | gefitinib -0.038

AGO1 (UniProt Q9UL18)
inactive: alvocidib 0.019 | Tubastatin A 0.058 | [1] 0.007 | defactinib -0.05 | [2] 0.034 | encorafenib -0.007 | [3] -0.029 | alisertib 0.007 | [4] -0.012 | gefitinib 0.041

AGRN (UniProt O00468)
inactive: alvocidib -0.053 | Tubastatin A -0.012 | [1] 0.007 | defactinib -0.041 | [2] -0.163 | encorafenib -0.021 | [3] 0.073 | alisertib -0.138 | [4] -0.135 | gefitinib -0.078

AK6 (UniProt Q9Y3D8)
inactive: alvocidib 0.025 | Tubastatin A -0.113 | [1] 0 | defactinib -0.038 | [2] -0.108 | encorafenib 0.03 | [3] -0.012 | alisertib 0.019 | [4] 0.026 | gefitinib 0.01

ACTN2, A0A494C031
inactive: alvocidib -0.101 | Tubastatin A 0.262 | [1] 0.068 | defactinib -0.125 | encorafenib -0.218 | [3] 0.046 | alisertib -0.047 | [4] 0.085 | gefitinib 0.048

ACSL6 isoform 1 (UniProt Q9UKU0)
inactive: alvocidib 0.099 | Tubastatin A -0.24 | [1] -0.049 | [4] -0.125

AKR1C1 (UniProt Q04828)
inactive: alvocidib 0.068 | Tubastatin A 0.134 | [1] -0.012 | defactinib 0.047 | [2] -0.242 | encorafenib -0.069 | [3] 0.042 | [4] 0.024

ACTB (UniProt C9JTX5)
inactive: alvocidib 0.097 | defactinib 0.085 | [2] 0.076 | alisertib -0.143 | [4] 0.081 | gefitinib -0.134

AK3 (UniProt Q9UIJ7)
inactive: alvocidib -0.002 | Tubastatin A 0.025 | [1] -0.017 | defactinib 0.003 | [2] -0.018 | encorafenib -0.016 | [3] 0.023 | alisertib -0.012 | [4] -0.001 | gefitinib -0.01

ADPRM (UniProt Q3LIE5)
inactive: alvocidib -0.025 | Tubastatin A 0.071 | defactinib 0.104 | encorafenib 0.005 | [3] 0.04

ADD1 isoform 4 (UniProt P35611)
inactive: alvocidib -0.397 | Tubastatin A 0.303 | [1] -0.081 | defactinib 0.071 | [2] 0.051 | encorafenib -0.034 | [3] 0 | [4] 0.094

AHCTF1 isoform 2 (UniProt Q8WYP5)
inactive: alvocidib -0.045 | Tubastatin A 0.02 | [1] 0.099 | [4] 0.082

ACTR5 (UniProt Q9H9F9)
inactive: alvocidib -0.026 | Tubastatin A 0.044 | [1] 0.019 | defactinib 0.037 | [2] 0.037 | encorafenib 0.016 | [3] 0.052 | alisertib -0.048 | gefitinib 0.202

ACSS1 (UniProt Q9NUB1)
inactive: alvocidib -0.01 | Tubastatin A 0.018 | [2] 0.073 | encorafenib -0.009 | [3] 0.013 | alisertib -0.05 | [4] 0.066 | gefitinib -0.116

ACSL1 (UniProt P33121)
inactive: alvocidib 0.02 | Tubastatin A -0.169 | [1] 0.001 | defactinib 0.096 | [2] -0.062 | encorafenib 0.007 | [3] -0.052 | alisertib 0.057 | [4] -0.08 | gefitinib -0.036

AFMID isoform 2 (UniProt Q63HM1)
inactive: alvocidib 0.072 | Tubastatin A 0.359 | defactinib -0.045 | encorafenib 0.024 | [3] 0.108

ACTN4 (UniProt K7EJH8)
inactive: alvocidib -0.002 | Tubastatin A 0.07 | [2] -0.046 | encorafenib 0.072 | [3] -0.009 | alisertib -0.005 | [4] 0.037 | gefitinib 0.017

AIF1 (UniProt P55008)
inactive: alvocidib 0.075 | Tubastatin A 0.219 | [1] -0.122 | defactinib -0.068 | [2] -0.04 | alisertib 0.094 | [4] -0.169 | gefitinib 0.008

ADAMTSL4 isoform 3 (UniProt Q6UY14)
inactive: alvocidib 0.054 | Tubastatin A -0.002 | [1] -0.012 | [2] 0.297 | alisertib -0.034 | [4] -0.013 | gefitinib 0.06

ADAM15 (UniProt Q13444)
inactive: alvocidib 0 | Tubastatin A -0.026 | [1] 0.069 | [2] 0.004 | [4] 0.054

AGGF1 (UniProt Q8N302)
inactive: alvocidib -0.114 | Tubastatin A -0.058 | [1] 0.023 | encorafenib 0.126 | [3] 0.008 | alisertib -0.015 | [4] 0.145 | gefitinib -0.008
active: defactinib -0.365

AGPAT4 (UniProt Q9NRZ5)
inactive: alvocidib -0.088 | Tubastatin A 0.056 | [1] 0.094 | encorafenib 0.153 | [3] -0.27

ADIPOR1 (UniProt Q96A54)
inactive: alvocidib -0.057 | Tubastatin A 0.023 | [1] 0.047 | defactinib 0.074 | [2] 0.133 | encorafenib 0.051 | [3] 0.037 | alisertib 0.071 | gefitinib -0.175

ACYP2 (UniProt P14621)
active: defactinib 0.329
inactive: alvocidib 0.084 | Tubastatin A -0.021 | [1] 0.007 | alisertib -0.096 | [4] -0.009 | gefitinib -0.02

AGPAT2 (UniProt O15120)
inactive: alvocidib -0.008 | Tubastatin A 0.01 | [1] 0.091 | defactinib -0.104 | encorafenib 0.054 | [3] -0.043 | alisertib 0.009 | gefitinib 0.052

AIF1L (UniProt Q9BQI0)
inactive: alvocidib 0.083 | Tubastatin A -0.009 | [1] 0.073 | [2] 0.164 | encorafenib 0.06 | alisertib 0.095 | [4] 0.001 | gefitinib 0.035
active: [3] -0.401
